These are yes or no findings as the source states them, for the method shown. Binding seen in cells or lysates may run through a third protein. A yes stands for co-enrichment or nearness to the bait. Other partners may have been found.
Molecular target: Adapter protein CRK (mouse (endogenous in E18.5 limb muscle and primary MuSC-derived myotubes)) (UniProt Q64010)
Experiment: affinity purification with mass spectrometry; CRK immunoprecipitated from E18.5 limb muscle protein extracts of wild type and miR-1/206/133 tKO mice, triplicate sample sets, in gel digest, LC/MS2

Protein sequences, listed by entry. Tags and fused reporters are not part of them.
UniProt Q64010: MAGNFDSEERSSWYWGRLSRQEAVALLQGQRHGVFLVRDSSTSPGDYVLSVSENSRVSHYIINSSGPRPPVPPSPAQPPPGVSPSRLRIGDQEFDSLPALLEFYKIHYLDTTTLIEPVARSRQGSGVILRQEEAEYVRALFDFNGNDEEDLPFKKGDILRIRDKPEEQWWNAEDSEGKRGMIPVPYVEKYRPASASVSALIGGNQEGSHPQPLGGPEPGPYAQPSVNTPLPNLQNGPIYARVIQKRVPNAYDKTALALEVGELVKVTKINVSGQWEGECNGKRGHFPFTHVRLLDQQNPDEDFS

B1: RAC1-GEF FARP1 (protein, UniProt F8VPU2 1-1048)
chain: MGEIEQKPTPASRLGAPENSGISTLERGQKPPPTPSGKLMTVKIQMLDDTQEAFEVPQRAPGKVLFDAVCNHLNLVEGDYFGLEFPDHRKIVVWLDLLKPIVKQIRRPKHVVVKFVVKFFPPDHTQLQEELTRYLFALQVKQDLAQGRLTCNDTSAALLISHIVQSEIGDFDEALDREHLAKNKYVPQQDALEDRIMEFHHSHVGQTPAESDFQLLEVARRLEMYGIRLHPAKDREGTKINLAVANTGILVFQGFTKINAFNWAKVRKLSFKRKRFLIKLRPDVNSSYQDTLEFLMAGRDFCKSFWKICVEHHAFFRLFEEPKPKPKPVLFSRGSSFRFSGRTQKQVLDYVKEGGHKKVQFERKHSKIHSTRSLVSQPTAPNSEVPKQSPQSASLTFGEGTESPGGQSCQQAKETKACTLELGPHQSPALPKSPPGSKAADGTTVVPPEEEEEEEGGKDGIRPSNPQPPQPSTGSLTGSPHLSELSINSQGGAAPANVTLSPNLSPDNKQASPLISPLLNDQACPRTDDEEEGRRKRFPTDKAYYIAKEVSTTERTYLKDLEVIASWFQSTVSKEDSMPEALKSLIFPNFEPLHKFHTNFLKEIEQRLALWEGRSNAHVRGDYQRIGDVMLKNIQGMKHLAAHLWKHSEALEALETSIKGSRRLEHFCRDFELQKVCYLPLNTFLLRPLHRLMHYKHVLERLCKHHPPNHADFRDCRAALAEITEMVAQLHGTMIKMENFQKLHELKKDLIGIDNLVTPGREFIRLGSLSKLSGKGLQQRMFFLFNDVLLYTSRGLTASNQFKVHGQLPLYGMTIEESEEEWGVPHCLTLRGQRQSIIVAASSRSEMEKWMEDIQMAIDLAEKSNGPTPELLASSPPDNKSPDEATAADQESEDDLSASRTSLERQAPHRGNTMVHVCWHRSTSVSMVDFSIAVENQLSGNLLRKFKNSNGWQKLWVVFTNFCLFFYKSHQDSHPLASLPLLGYSLTIPSESENIHKDYVFKLHFKSHVYYFRAESEYTFERWMEVIRSATSSASRAHILSHKESHLY
- binding: binds
